# Primary screen of a compound library

T. brucei: 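Whole-parasite assay of Trypanosoma brucei over 72 hours; the read-out is not stated. Compounds at 30 µM. The record gives no direction; compounds that gave an IC50 in retests scored well above the rest, so higher reads as stronger inhibition. Values scatter widely below zero; nearly all retest evidence comes from the higher of the two concentrations used. Size under these conditions: about 64,000 compounds, about 940 of them at 50% or above in at least one test.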
Toxoplasma: 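Assay of Toxoplasma gondii numbers, read through their beta-galactosidase reporter with a colour substrate. Compounds at 10 µM. The record gives no direction; the compounds picked for IC50 retests had high values, so higher reads as fewer parasites. Of about 67,000 compounds tested this way, about 260 (0.38%) reached 50% or more in at least one test.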
Leishmania in macrophages: 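Cell assay of Leishmania donovani living inside macrophages; the read-out is not stated. Compounds at 30 µM. Direction is inferred from retests: higher values go with stronger inhibition. About 69,000 compounds were tested under these conditions; 1.5% (about 1,000) showed 50% or more at least once.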

Values are the deposited “Percent Effect”, in %. The record does not define 0% and 100%; most values in the screen are far below 50% and negative numbers occur (in some assays of this library far below -100). This is an unselected part of the compounds tested. Two or more numbers in one place are separate tests of the same structure; such repeats can differ widely.

- CN1N=C(C(=O)N2CCCC(n3cccn3)C2)CCC1=O (centres unmarked) | T. brucei: -25.18%; Toxoplasma: 16.44%; Leishmania in macrophages: 7.147%
- O=C(O)C(F)(F)F.O=C(O)C(F)(F)F.[H][C@]12CCN(CCN(C)C)[C@@]1([H])CC[C@H](COCC(=O)N1CCCC1)O2 | T. brucei: -27.84%; Toxoplasma: -18.42%; Leishmania in macrophages: -25.14%
- CN1CCCN(C(=O)c2ccnn2-c2ccc3ccccn23)CC1.O=C(O)C(F)(F)F | T. brucei: -61.22%; Toxoplasma: -5.611%; Leishmania in macrophages: 16.35%
- COc1ccccc1CC(C)(C)NC(=O)CNS(C)(=O)=O | T. brucei: -12.33%; Toxoplasma: 2.947%; Leishmania in macrophages: -2.57%
- O=C(NCC1CC1)c1cc(C2CC2)nc2onc(C3CCCNC3)c12 (centres unmarked) | Toxoplasma: 4.776%; Leishmania in macrophages: -0.9535%
- O=C(NCCCN1CCOCC1)c1cc(-c2ccco2)[nH]n1 | T. brucei: -24.62%; Toxoplasma: -6.51%; Leishmania in macrophages: 30.83%
- O=C(NCC1(O)COCCN(Cc2cccc(O)c2)C1)c1ccccn1 (centres unmarked) | Leishmania in macrophages: 23.66%
- CN1CCC2(CCC1=O)CCN(C(=O)Cc1ccc(O)c(F)c1)CC2 | T. brucei: 1.158%; Toxoplasma: 2.412%; Leishmania in macrophages: 13.22%
- Cc1cccc(-c2noc(CN3CCn4c(nnc4C4CC4)C3)n2)c1 | T. brucei: -19.69%; Toxoplasma: 9.263%; Leishmania in macrophages: -14.58%
- CCNc1ncc(CN2C[C@@H](CN3CCC(CO)CC3)[C@@H](CO)C2)cn1 | T. brucei: -7.035%; Toxoplasma: -2.136%; Leishmania in macrophages: 22.28%
- CNC(=O)CCNC(=O)Nc1cccc(Cl)c1SC(F)F | T. brucei: -42.64%; Toxoplasma: -0.6321%; Leishmania in macrophages: 23.25%
- CC(NC(=O)N1CCN(c2ccccc2)CC1)c1nncn1C (centres unmarked) | T. brucei: -35.87%; Toxoplasma: 1.331%; Leishmania in macrophages: -23.96%
- Cc1ccc(CN(Cc2ccncc2)C2CCN(C)CC2)s1 | T. brucei: -18.45%; Toxoplasma: 3.016%; Leishmania in macrophages: 29.12%
- Cc1ccc(CCC(=O)N2CCCC(n3cncn3)C2)c(C)c1 (centres unmarked) | T. brucei: 38.32%; Toxoplasma: 6.513%; Leishmania in macrophages: -5.496%
- CN(Cc1ccccc1)C1(C(=O)NC(CO)CO)Cc2ccccc2C1 | T. brucei: -91.85%; Toxoplasma: -5.859%; Leishmania in macrophages: 16.95%
- O=C(c1n[nH]cc1Cl)N1CCSCC1 | T. brucei: -3.82%; Toxoplasma: 15.79%; Leishmania in macrophages: 10.03%
- Cn1cccc1C(=O)NCc1cnc2n1CCN(C(N)=O)CC2 | T. brucei: -6.982%; Toxoplasma: 4.113%; Leishmania in macrophages: 11.83%
- Cc1cc(C)c2nc(C)cc(C(=O)NC(C)c3nnn[nH]3)c2c1 (centres unmarked) | T. brucei: -38.07%; Toxoplasma: -8.405%; Leishmania in macrophages: 16.35%
- CC(C)[C@@H]1CN(S(=O)(=O)c2cccc(C(=O)O)c2)C[C@H]1N(C)C | T. brucei: 98.32%; Toxoplasma: -1.864%; Leishmania in macrophages: -1.697%
- COCCc1noc(C2CCN(C(=O)Nc3cccs3)CC2)n1 | T. brucei: 16.13%; Toxoplasma: 1.268%; Leishmania in macrophages: 3.596%
- CC(C)NC(=O)C1CN(Cc2ccsc2)Cc2ccnn2C1.O=C(O)C(F)(F)F.O=C(O)C(F)(F)F (centres unmarked) | T. brucei: -31.86%; Toxoplasma: 22.24%; Leishmania in macrophages: -79.34% and 1.319%
- Cc1c(C)n(Cc2ccncc2)c2nc3c(c(N)c12)CCCC3 | T. brucei: -35.87%; Toxoplasma: 1.963%; Leishmania in macrophages: 9.739%
- CCC(CC)C(=O)NS(=O)(=O)c1ccc(C#N)cc1C(F)(F)F | T. brucei: -5.911%; Toxoplasma: -34.37%; Leishmania in macrophages: 15.16%
- O=C(NCC1CC1)c1cnc(-c2ccccc2)nc1 | T. brucei: -13.71%; Toxoplasma: -6.319%; Leishmania in macrophages: 0.1818%

Source: ChEMBL document CHEMBL3988442, “University of Dundee, Small-Polar-MMV Screening Library” (2021).